These are yes or no findings as the source states them, for the method shown. Binding seen in cells or lysates may run through a third protein. Here binding means that the protein was enriched with, or labelled near, the bait; the list need not be complete. Tags and fused reporters may be left off the sequences shown.

For this experiment, the target named is T1, SIRT4-Flag (human) (UniProt Q9Y6E7).
T1 sequence: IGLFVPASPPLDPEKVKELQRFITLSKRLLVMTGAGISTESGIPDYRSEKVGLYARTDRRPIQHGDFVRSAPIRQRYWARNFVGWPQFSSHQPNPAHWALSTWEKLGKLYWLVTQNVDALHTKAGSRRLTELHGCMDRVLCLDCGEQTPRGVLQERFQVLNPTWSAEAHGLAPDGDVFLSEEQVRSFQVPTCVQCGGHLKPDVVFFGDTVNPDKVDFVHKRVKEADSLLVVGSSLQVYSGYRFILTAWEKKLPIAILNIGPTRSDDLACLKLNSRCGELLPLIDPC
In words: affinity purification with mass spectrometry; anti-Flag M2 affinity gel on lysates of 293FT cells transiently transfected with SIRT4-Flag, compared with empty vector; bands of the SDS-PAGE gel analysed by mass spectrometry.

B1: 3-methylcrotonyl-CoA carboxylase 2 (MCCC2), endogenous in 293FT cells (enzyme, UniProt Q9HCC0 23-563)
chain: YHGDSVASLGTQPDLGSALYQENYKQMKALVNQLHERVEHIKLGGGEKARALHISRGKLLPRERIDNLIDPGSPFLELSQFAGYQLYDNEEVPGGGIITGIGRVSGVECMIIANDATVKGGAYYPVTVKKQLRAQEIAMQNRLPCIYLVDSGGAYLPRQADVFPDRDHFGRTFYNQAIMSSKNIAQIAVVMGSCTAGGAYVPAMADENIIVRKQGTIFLAGPPLVKAATGEEVSAEDLGGADLHCRKSGVSDHWALDDHHALHLTRKVVRNLNYQKKLDVTIEPSEEPLFPADELYGIVGANLKRSFDVREVIARIVDGSRFTEFKAFYGDTLVTGFARIFGYPVGIVGNNGVLFSESAKKGTHFVQLCCQRNIPLLFLQNITGFMVGREYEAEGIAKDGAKMVAAVACAQVPKITLIIGGSYGAGNYGMCGRAYSPRFLYIWPNARISVMGGEQAANVLATITKDQRAREGKQFSSADEAALKEPIIKKFEEEGNPYYSSARVWDDGIIDPADTRLVLGLSFSAALNAPIEKTDFGIFRM
In the case of B1, the binding result is “binds”.

For the origin of these results see PMC12080386.
